Source: paper PMC10573421

The chains behind the UniProt entries cited, without tags or fusion partners. Where a name states a change or a piece, a line headed by the entry shows the natural chain unless it says otherwise.
UniProt P78504: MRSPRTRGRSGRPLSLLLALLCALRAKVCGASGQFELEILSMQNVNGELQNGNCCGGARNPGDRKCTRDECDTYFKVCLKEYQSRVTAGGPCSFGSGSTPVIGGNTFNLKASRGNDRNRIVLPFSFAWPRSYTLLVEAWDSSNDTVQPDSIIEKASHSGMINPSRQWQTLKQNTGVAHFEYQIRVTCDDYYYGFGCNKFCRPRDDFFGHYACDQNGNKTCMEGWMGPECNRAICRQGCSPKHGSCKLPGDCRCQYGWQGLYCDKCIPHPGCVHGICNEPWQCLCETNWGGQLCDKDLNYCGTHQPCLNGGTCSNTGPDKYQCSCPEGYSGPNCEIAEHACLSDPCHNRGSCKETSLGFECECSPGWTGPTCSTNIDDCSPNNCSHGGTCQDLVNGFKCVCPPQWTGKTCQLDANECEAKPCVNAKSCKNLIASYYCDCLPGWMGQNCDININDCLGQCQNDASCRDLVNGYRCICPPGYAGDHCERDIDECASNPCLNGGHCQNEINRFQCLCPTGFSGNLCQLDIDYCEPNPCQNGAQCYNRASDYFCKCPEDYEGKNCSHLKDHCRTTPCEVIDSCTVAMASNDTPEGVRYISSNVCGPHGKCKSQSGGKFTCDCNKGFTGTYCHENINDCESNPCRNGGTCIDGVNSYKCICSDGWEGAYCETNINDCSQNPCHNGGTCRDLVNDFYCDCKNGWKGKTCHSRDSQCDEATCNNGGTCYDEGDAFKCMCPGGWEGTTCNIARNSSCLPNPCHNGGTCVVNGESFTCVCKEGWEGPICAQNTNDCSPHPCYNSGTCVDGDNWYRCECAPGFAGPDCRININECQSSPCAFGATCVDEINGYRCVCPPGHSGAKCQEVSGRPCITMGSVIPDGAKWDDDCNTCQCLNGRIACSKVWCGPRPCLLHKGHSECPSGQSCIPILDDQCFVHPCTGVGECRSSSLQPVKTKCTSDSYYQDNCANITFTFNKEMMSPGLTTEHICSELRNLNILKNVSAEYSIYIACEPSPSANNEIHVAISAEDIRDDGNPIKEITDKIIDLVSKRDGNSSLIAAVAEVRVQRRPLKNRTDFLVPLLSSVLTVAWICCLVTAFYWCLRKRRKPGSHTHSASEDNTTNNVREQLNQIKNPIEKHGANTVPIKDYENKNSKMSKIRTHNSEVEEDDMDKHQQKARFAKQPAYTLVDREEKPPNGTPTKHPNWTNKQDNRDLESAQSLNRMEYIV
UniProt P07355: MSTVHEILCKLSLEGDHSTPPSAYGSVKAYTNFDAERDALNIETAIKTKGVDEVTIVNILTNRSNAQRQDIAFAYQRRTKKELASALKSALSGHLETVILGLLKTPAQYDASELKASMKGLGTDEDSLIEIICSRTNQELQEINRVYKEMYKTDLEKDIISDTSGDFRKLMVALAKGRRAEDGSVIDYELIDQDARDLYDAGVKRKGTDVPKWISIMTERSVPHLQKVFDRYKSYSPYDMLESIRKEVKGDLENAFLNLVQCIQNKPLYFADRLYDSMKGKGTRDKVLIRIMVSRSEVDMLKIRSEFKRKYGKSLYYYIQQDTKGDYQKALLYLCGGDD
UniProt P11142: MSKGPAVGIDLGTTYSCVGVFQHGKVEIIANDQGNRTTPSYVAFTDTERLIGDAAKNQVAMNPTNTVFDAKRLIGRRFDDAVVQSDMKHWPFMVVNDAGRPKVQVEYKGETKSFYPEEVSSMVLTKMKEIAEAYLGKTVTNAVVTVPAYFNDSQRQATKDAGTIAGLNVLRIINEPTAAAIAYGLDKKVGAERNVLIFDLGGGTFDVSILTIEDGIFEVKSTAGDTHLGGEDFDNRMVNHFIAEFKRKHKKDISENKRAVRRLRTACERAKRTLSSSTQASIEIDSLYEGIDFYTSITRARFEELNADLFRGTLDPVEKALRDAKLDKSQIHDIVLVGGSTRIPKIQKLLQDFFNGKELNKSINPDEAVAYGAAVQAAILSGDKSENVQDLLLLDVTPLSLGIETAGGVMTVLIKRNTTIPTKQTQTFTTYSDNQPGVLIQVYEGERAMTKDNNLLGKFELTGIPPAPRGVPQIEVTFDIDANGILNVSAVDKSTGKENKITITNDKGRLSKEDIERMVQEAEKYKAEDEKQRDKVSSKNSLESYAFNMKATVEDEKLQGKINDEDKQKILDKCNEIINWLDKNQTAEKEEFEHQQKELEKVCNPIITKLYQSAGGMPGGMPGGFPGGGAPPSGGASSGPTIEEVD

Experiments:
[1] = molecular target: JICD1-HA-FLAG (JAG1 intracellular domain) (UniProt P78504); assay: proximity ligation; Duolink PLA against HA and ANXA2 in LN18 JICD1-HA-FLAG cells
[2] = molecular target: JICD1-HA-FLAG (JAG1 intracellular domain) (UniProt P78504); assay: co-IP; IP against HA from LN18 JICD1-HA-FLAG cells with or without ANXA2 knockdown; blots for HSC70 and HSP90

Substance | binding [1] | binding [2]
Annexin A2 (ANXA2), endogenous (from UniProt P07355 1-339) | binds | –
HSPA8 (HSC70) (from UniProt P11142 1-646) | – | binds

Results are given in words; binding and its absence hold for the method and conditions named. In cells and extracts the contact can be indirect. A result given as binding can be weak or reduced; the word gives no strength.
